Assay results published in patent publication US4954347A (priority 1988, dated 1990).
Structures can show the parent of a compound that is named as a salt.

Columns and labels:
[1] = one patient; co-administration of 80 mg quinidine gluconate every 8 hours; 8 hour dosing interval
[2] = oral; cited from earlier work

CCCNCC(O)COc1ccccc1C(=O)CCc1ccccc1 (centres unmarked) [propafenone, 2'-[3-(prophylamino)-2-(hydroxy)-(propoxy)-3-phenylpropiophenone hydrochloride]
propafenone plasma concentrations, increase versus propafenone administered alone [1]: about 150% | hemodynamic changes or life-threatening toxic side effects [2]: does not appear to cause significant hemodynamic changes or life-threatening toxic side effects
